Data as given in publication PMC7426271.
Where two headings read alike, the source gives them in different places. Results are given in words; binding and its absence hold for the method and conditions named. Binding seen in cells or lysates may run through a third protein. Some entries that bind do so weakly or less than the wild type. Values belong to the molecule of their own block, whether it stands above or below them.

By UniProt entry, the sequences of proteins in these tests, tags left out. Where a name states a change or a piece, a line headed by the entry shows the natural chain unless it says otherwise.
UniProt P62960: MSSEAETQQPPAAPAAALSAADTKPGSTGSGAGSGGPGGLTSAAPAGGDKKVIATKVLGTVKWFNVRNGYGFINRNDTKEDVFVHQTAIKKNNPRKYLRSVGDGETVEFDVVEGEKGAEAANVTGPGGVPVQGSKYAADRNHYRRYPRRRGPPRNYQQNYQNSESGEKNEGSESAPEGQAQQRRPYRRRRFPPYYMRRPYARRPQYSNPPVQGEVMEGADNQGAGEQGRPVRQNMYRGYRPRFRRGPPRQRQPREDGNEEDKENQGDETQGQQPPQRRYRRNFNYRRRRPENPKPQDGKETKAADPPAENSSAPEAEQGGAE
UniProt Q15022: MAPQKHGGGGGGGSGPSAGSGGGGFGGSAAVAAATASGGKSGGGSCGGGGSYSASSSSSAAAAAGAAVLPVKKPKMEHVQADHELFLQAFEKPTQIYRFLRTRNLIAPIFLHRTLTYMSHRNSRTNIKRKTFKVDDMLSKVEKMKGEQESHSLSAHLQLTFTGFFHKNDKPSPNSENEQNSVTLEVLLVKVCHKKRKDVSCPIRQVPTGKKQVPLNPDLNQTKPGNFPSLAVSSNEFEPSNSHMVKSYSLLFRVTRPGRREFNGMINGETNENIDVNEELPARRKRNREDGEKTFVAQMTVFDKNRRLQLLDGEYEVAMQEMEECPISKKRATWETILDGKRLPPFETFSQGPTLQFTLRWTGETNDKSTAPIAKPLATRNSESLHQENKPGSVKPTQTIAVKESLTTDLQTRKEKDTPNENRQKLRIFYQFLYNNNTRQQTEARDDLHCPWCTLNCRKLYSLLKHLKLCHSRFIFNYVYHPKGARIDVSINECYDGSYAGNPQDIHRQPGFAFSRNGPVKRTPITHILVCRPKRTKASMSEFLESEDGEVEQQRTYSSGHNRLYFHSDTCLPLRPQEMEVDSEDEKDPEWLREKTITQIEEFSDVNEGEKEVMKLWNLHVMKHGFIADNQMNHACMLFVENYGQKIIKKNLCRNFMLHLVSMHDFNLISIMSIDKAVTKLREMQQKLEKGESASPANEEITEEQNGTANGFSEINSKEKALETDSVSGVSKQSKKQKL
UniProt Q61188: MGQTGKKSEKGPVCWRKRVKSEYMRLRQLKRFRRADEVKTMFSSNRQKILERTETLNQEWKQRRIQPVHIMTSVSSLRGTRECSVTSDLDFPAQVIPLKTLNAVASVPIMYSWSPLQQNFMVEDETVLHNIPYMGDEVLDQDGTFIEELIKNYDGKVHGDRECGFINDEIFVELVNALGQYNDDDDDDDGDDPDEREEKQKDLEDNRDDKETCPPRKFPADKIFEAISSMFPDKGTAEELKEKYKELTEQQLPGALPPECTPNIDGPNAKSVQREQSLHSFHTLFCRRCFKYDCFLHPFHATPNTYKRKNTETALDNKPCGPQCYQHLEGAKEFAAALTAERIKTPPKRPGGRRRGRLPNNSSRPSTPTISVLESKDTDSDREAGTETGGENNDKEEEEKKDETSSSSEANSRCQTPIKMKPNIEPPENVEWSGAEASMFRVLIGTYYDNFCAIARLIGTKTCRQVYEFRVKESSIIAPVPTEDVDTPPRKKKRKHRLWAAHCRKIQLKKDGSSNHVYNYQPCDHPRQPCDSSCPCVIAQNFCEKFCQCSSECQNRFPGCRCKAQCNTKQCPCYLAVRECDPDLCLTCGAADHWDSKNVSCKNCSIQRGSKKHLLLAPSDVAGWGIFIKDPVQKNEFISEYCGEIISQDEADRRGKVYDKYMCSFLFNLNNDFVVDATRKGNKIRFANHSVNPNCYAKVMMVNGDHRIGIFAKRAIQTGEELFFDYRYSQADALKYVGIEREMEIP
UniProt P67809: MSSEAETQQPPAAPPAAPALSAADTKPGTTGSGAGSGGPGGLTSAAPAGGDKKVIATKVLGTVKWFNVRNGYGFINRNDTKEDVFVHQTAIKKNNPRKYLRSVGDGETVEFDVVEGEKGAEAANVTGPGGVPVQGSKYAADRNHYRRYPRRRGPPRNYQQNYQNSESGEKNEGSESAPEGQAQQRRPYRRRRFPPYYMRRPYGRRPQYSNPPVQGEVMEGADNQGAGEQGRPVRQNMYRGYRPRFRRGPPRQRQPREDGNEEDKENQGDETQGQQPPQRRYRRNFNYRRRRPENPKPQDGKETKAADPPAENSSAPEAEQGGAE
UniProt Q96KQ7: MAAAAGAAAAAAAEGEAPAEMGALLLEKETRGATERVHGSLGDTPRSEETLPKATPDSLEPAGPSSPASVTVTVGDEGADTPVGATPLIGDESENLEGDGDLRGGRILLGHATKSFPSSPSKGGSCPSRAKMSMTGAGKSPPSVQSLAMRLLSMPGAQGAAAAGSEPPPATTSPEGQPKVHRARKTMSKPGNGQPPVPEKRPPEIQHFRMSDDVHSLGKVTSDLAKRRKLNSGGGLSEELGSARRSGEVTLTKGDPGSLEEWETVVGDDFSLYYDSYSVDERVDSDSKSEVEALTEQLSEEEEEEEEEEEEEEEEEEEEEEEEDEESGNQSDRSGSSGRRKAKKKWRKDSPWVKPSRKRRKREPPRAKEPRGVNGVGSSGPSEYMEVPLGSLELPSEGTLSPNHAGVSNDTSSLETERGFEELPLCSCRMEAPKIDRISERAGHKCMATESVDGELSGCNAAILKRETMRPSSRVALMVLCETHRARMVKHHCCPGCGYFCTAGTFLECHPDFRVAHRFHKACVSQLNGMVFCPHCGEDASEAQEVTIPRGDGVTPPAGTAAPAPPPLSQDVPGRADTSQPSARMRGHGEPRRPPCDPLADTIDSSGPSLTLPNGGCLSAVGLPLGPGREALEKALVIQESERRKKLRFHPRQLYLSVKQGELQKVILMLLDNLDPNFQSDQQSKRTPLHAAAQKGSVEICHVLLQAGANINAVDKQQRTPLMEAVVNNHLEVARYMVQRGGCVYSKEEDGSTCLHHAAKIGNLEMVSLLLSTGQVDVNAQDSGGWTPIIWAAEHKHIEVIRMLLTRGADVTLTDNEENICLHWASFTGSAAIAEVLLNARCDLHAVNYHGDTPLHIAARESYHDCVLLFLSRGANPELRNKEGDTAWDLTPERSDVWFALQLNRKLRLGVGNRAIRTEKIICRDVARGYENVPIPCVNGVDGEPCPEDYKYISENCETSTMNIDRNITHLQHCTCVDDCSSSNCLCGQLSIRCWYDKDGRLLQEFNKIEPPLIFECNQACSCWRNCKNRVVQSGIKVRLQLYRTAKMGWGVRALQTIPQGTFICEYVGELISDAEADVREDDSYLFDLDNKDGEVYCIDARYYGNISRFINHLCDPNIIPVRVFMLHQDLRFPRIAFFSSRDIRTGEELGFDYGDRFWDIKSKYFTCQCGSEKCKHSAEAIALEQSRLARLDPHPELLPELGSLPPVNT

Columns and labels:
[1] = molecular target: JARID2 (human (endogenous in H9 hESC and hNPC)) (UniProt Q92833); test: co-IP; anti-JARID2 IP from hESC nuclear extract, Western blot
His-JARID2 = His-JARID2 (UniProt Q92833); test: pull-down; His-JARID2 and GST-YBX1; Western blot
[2] = molecular target: Ybx1 (mouse (endogenous in NE-4C cells and in mouse neural tube)) (UniProt P62960); test: co-IP; IgG, Jarid2 and Ybx1 IP from mouse neural tube nuclear extract (E13.5); Western blot
[3] = molecular target: T1, Jarid2 (mouse (endogenous in NE-4C cells and in mouse neural tube)) (UniProt Q62315); test: as above
T1 sequence: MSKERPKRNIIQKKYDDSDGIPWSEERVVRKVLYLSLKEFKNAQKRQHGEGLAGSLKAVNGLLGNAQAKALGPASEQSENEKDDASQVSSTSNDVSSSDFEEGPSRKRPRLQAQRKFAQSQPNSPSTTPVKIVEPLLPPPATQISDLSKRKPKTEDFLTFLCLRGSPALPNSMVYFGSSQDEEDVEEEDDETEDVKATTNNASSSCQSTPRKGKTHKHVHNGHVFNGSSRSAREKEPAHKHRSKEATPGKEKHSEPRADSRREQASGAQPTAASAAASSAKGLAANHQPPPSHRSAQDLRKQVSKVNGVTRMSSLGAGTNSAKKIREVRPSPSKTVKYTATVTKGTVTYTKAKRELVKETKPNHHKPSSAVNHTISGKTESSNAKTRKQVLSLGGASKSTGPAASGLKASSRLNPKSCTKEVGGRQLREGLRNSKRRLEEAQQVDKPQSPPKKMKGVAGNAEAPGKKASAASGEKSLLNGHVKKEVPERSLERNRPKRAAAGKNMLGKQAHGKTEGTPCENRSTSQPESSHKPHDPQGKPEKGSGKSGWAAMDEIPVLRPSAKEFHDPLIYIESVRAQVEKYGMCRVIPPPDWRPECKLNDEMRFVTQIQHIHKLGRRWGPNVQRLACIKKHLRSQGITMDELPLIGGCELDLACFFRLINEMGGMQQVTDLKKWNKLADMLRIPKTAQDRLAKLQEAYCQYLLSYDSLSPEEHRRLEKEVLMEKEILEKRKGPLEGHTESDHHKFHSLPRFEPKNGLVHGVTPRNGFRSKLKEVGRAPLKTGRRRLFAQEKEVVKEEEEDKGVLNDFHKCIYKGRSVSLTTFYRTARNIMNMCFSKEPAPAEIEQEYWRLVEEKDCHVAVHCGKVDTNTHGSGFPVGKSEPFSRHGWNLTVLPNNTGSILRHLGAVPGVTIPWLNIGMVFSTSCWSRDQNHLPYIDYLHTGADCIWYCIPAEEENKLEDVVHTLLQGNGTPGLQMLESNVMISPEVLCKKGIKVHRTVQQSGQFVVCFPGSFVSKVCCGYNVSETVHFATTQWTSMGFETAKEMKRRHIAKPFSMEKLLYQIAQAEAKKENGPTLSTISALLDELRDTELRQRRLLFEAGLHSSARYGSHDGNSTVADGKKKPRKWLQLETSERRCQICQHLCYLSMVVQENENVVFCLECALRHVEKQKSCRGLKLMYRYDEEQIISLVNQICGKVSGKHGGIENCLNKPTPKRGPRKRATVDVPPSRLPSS

[4] = molecular target: SUZ12 (human (endogenous in H9 hESC and hNPC)) (UniProt Q15022); test: co-IP; IgG, JARID2, YBX1 and SUZ12 IP from hNPC nuclear extract; Western blot
[5] = molecular target: JARID2 (human (endogenous in H9 hESC and hNPC)) (UniProt Q92833); test: as above
[6] = molecular target: JARID2 (human (endogenous in H9 hESC and hNPC)) (UniProt Q92833); test: co-IP; IgG, JARID2 and YBX1 IP from hESC nuclear extract; benzonase treatment (125 U/mL, 30 min RT), high-stringency washes, 2 other JARID2 antibodies; Western blot
[7] = molecular target: Ybx1 (mouse (endogenous in NE-4C cells and in mouse neural tube)) (UniProt P62960); test: co-IP; IgG, Jarid2 and Ybx1 IP from mouse neural tube nuclear extract (E13.5); Western blot; remark: listed apart in the source

binding [2]: binds
binding [3]: binds
Molecule: PRC2 (from UniProt Q61188 1-746; Q80U70 1-741; Q921E6 1-441) (complex)

binding [4]: binds weakly
binding [5]: binds
binding [6]: binds
Molecule: Y-box binding protein 1 (from UniProt P67809 1-324)

More lines, now with the values behind:

Molecule: G9A (from UniProt Q96KQ7 1-1210)
binding [1]: no binding

Molecule: GST-YBX1 (from UniProt P67809 1-324)
binding (His-JARID2): binds

B1: Jarid2 (protein, UniProt Q62315 1-1234)
chain: T1 sequence
binding [7]: binds weakly
